Test system: IgG1 monoclonal antibody
Assay: Antioxidant incubation screening: color intensity of antibody composition after incubation in Media 1/Media 2 mixture
Conditions: 1X test concentration in Media 1 + Media 2 mixture, 2 g/L IgG1 mAb, 5 days 37° C.; protein A pool concentrated to 150 g/L; normalized to positive control
Protocol: For antioxidant screening, a total volume of 40 ml media was prepared by mixing 1 part basal Media 1 and 0.3 part feed Media 2 to mirror a representative ratio of media used in cell culture conditions (Table 5). […] The samples were incubated at 37° C. with shaking at 250 rpm for a five day incubation period.
After incubation, the monoclonal antibody was purified using protein A affinity chromatography. The pool was concentrated to 150 g/L using Amicon Centricon centrifugal filter devices (Millipore Corporation, Billerica, Mass.). Color intensity of the concentrated antibody composition was measured in the concentrated protein A pool using an assay wherein higher numerical values indicate higher color intensity and lower numerical values indicate lower color intensity. The numerical results were normalized to the positive control, where the value for the positive control was set at 0% change in color intensity.

| SMILES | effect on color of the antibody composition |
| --- | --- |
| Cn1cncc1C[C@H](NC(=O)CCN)C(=O)O.O=[N+]([O-])O [anserine, (2S)-2-(3-aminopropanamido)-3-(1-methyl-1H-imidazol-5-yl)propanoic acid; nitric acid] | reduce the color |
| COc1ccc(O)c(C(C)(C)C)c1 [butylated hydroxyanisole, 2-tert-butyl-4-methoxyphenol] | reduce the color |
| NCCC(=O)N[C@@H](Cc1cnc[nH]1)C(=O)O [carnosine, (2S)-2-(3-aminopropanamido)-3-(1H-imidazol-5-yl)propanoic acid] | reduce the color |
| NCCS [cysteamine, 2-aminoethane-1-thiol] | increase the color |
| O=C([O-])c1cc(O)ccc1O.[Na+] [gentisic acid, sodium 2,5-dihydroxybenzoate] | increase the color |
| C[C@]12CCC(=O)C=C1CC[C@@H]1[C@@H]2[C@@H](O)C[C@@]2(C)[C@H]1CC[C@]2(O)C(=O)CO [hydrocortisone, (1S,2R,10S,11S,14R,15S,17S)-14,17-dihydroxy-14-(2-hydroxyacetyl)-2,15-dimethyltetracyclo[8.7.0.0^{2,7}.0^{11,15}]heptadec-6-en-5-one, reference compound] | increase the color |
| O=C(O)CCCC[C@@H]1CCSS1 [lipoic acid, 5-[(3R)-1,2-dithiolan-3-yl]pentanoic acid] | reduce the color |
| CC(S)C(=O)NCC(=O)O (stereo not drawn) [mercaptopropionyl glycine, 2-(2-sulfanylpropanamido)acetic acid] | increase the color |
| C[C@@H]1O[C@@H](Oc2c(-c3ccc(O)c(O)c3)oc3cc(O)cc(O)c3c2=O)[C@H](O)[C@H](O)[C@H]1O [quercitrin hydrate, 2-(3,4-dihydroxyphenyl)-5,7-dihydroxy-3-{[(2S,3R,4R,5R,6S)-3,4,5-trihydroxy-6-methyloxan-2-yl]oxy}-4H-chromen-4-one] | reduce the color |

From patent US10676710B2, “Cell culture compositions with antioxidants and methods for polypeptide production” (Genentech, Inc., priority 2013, dated 2020)
